LdMetRS: 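Methionyl-tRNA synthetase (putative), Leishmania donovani (UniProt E9BF75). Primary screen of methionyl-tRNA synthetase; the read-out is not stated. The test concentration is not given. Values are per cent inhibition. About 68,000 compounds were tested under these conditions; 0.035% (about 24) showed 50% or more at least once.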
Mtb heat-shock: 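Assay on Mycobacterium tuberculosis, filed only as a heat shock assay from Cornell; the read-out is not stated. The concentration is filed as 10 mM, unlikely as a test dose, so the dose is not known. Higher reads as stronger inhibition (inferred: compounds with an IC50 in retests scored well above the rest). Of about 69,000 compounds tested this way, about 930 (1.4%) reached 50% or more in at least one test.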

By UniProt entry, the sequences of proteins in these tests, tags left out.
UniProt E9BF75, entry or part of it: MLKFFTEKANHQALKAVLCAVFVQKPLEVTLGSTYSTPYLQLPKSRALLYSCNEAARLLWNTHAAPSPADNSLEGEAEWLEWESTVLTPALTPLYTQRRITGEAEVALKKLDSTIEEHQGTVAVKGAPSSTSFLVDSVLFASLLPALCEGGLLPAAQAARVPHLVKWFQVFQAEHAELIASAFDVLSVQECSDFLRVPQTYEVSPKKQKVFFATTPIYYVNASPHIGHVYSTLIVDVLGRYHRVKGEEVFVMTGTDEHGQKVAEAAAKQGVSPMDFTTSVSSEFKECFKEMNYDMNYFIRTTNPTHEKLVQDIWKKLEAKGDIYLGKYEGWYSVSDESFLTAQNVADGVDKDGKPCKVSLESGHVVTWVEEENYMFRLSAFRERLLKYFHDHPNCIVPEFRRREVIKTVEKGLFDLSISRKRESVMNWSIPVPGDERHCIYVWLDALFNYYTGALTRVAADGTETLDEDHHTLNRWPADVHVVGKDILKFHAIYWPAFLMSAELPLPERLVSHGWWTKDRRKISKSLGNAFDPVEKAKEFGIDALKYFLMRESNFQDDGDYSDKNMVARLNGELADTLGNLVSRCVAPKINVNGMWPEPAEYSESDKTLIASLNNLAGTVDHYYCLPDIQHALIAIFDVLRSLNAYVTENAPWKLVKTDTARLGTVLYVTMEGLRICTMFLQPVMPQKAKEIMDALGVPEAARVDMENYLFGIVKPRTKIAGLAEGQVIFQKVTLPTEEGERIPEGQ

Results are percentages, as filed.
How 0% and 100% were set is not recorded. Most values in the screen are low, and negative values occur.
The compounds are a random part of those screened.
A dash means the value is not listed here; it may have been measured.

SMILES	LdMetRS	Mtb heat-shock
O=C(O)C(F)(F)F.O=C1COC2(CCN(c3ncccn3)CC2)CN1Cc1ccccn1	-	-34.06
CC(C)c1nc(C2CCCN2C(=O)c2ccc(N(C)C)nn2)no1 (configuration not stated)	6.667	-11.38
O=C(c1cn(-c2ccccc2)nn1)N1CCCC(n2cccn2)C1 (configuration not stated)	19.67	0.1865
O=S1(=O)c2ccccc2C(O)CN1CCO (configuration not stated)	11.78	9.745
Cc1nc2c(NCC(C)N(C)c3ccccc3)ncnc2o1 (configuration not stated)	13.33	-21.02
CN(Cc1noc2c1CCCC2)C(=O)C1Cc2ccccc2CN1C (configuration not stated)	15.08	9.959
Cc1cccc(-c2nnn3c2COC(CNC(=O)N2CCCC2)C3)c1 (configuration not stated)	10.08	-8.896
CC1CCCCN1Cc1nc(C2CC2)no1 (configuration not stated)	-3.855	20.32
O=C(O)c1c(NC2CCC2)ncc2c1CCN(C1CCOC1)C2 (configuration not stated)	14.86	-
CCOCCOC(C)C(=O)Nc1ccc2ccn(CCN(C)C)c2c1 (configuration not stated)	8.635	-6.48
CCOC(=O)c1ccc(CNC(=O)c2ccon2)o1	-3.073	-26.1
Cc1cc(N2CCOC(C(F)(F)F)C2)nc(-c2ccccc2O)n1 (configuration not stated)	5.498	-3.547
O=C1CCC[C@]2(CN(S(=O)(=O)N3CCOCC3)C[C@H]2c2cccnc2)N1	13.29	-8.214
CCOC(=O)N1CCC2(CCNC2)C1.Cl (configuration not stated)	-	2.316
O=C(NC1CCCN(CCCc2ccccc2)C1)c1ccncc1 (configuration not stated)	12.39	5.847
Cc1ccnc(NC(=O)c2ccc(Cl)o2)c1	-3.064	-5.613
O=C(Nc1ccccn1)C1=NN(c2ccccc2)C(=O)CN1	4.225	-0.2621
O=C(C1=CCCC1)N1CC[C@]2(C[C@H](OCc3cccnc3)CO2)C1	8.795	-
CCNC(=O)c1nnc2ccc(N3CCOCC3)cc2n1	7.054	-12.5
Cc1c[nH]c(CN2CC[C@@]3(O)CCN(C(=O)C4CCC4)C[C@H]3C2)n1	-3.064	-
COc1ccc(CN2CCC(c3cc(O)nc(C)n3)C2)c(F)c1 (configuration not stated)	10.12	-21.03
CCOC(=O)CN1CCC(C(=O)c2cc(F)ccc2F)CC1	4.082	-4.077
CCCNC(=O)CCNC(=O)Cc1nc(-c2ccco2)oc1C	15.61	16.99
O=C1CC(c2ccsc2)c2sc(C(=O)O)c(-c3ccccc3)c2N1 (configuration not stated)	14.07	-13.41
CNC(=O)c1ccc(Cn2ccnc2S(C)(=O)=O)cc1	15.28	3.305
Cn1cc(C(=O)NCC2CCN(C(=O)NC3CC3)CC2)cn1	17.09	2.64
CCn1nc(C)c(CCN2CC3(CCOC3)CCC2=O)c1C (configuration not stated)	3.343	-13.23
Cc1cnn(C2CCCN(C(=O)c3cc(C)sc3C)C2)c1 (configuration not stated)	7.746	2.539
CC(C)N(CCO)C(=O)C1CCC(=O)N(CCc2cccc(F)c2)C1 (configuration not stated)	5.484	9.217
O=C(O)C(F)(F)F.[H][C@@]12CN(C(=O)c3cnoc3C)C[C@]1([H])C(=O)N(Cc1cccc(C)n1)C2	-	-1.837
Cc1nc(CN2CCOC(c3ccc(Cl)cc3)C2)oc1C (configuration not stated)	10.18	4.171
CN(C)c1ccc(C(=O)NCc2cccnc2-n2cncn2)cc1F	17.53	-4.781
O=c1[nH]nc2c(S(=O)(=O)N3CCCCCC3)cccn12	17.62	4.223
O=C(O)C(F)(F)F.O=C(O)C(F)(F)F.[H][C@@]12CCN(c3nncs3)C[C@@]1([H])O[C@@H](C(=O)Nc1cccnc1)C2	-	8.446
COc1ccc(OC)c2c(C)cc(N(C)Cc3cc(C)on3)nc12	4.381	-44.93
[H][C@]12CCC(=O)N(c3ccccc3)[C@@]1([H])CCN2C(=O)c1cc(C)on1	-	-14.7
O=C(NCc1ccccc1)c1nc2c(o1)CN(C(=O)c1cccnc1)C2	-11.11	-
Cc1cc(C)n(CC(=O)N(C)Cc2csc(-c3cccs3)n2)c(=O)n1	9.756	-10.45
Cc1nc(C)n(CC2CN(Cc3cscn3)CCO2)n1 (configuration not stated)	16.32	14.31
CN(C)c1cc(C2CCCN2C(=O)c2noc3c2CCCC3)ccn1 (configuration not stated)	13.65	8.197
O=C(O)C(F)(F)F.[H][C@@]12COC[C@@H](CC(=O)N3CCCC3)[C@]1([H])CN(Cc1ccc(OC)cc1)C2	-	-37.17
O=C1NCCCc2c1oc1ccc(O)c(CN3CCOCC3)c21	-5.149	7.388
Cl.Cn1nc(C2CCCN(Cc3cc(F)cc(F)c3)C2)c2nccnc21 (configuration not stated)	-	11.58
COCCOC1CCN(C(C(=O)O)c2ccc3c(c2)OCO3)CC1 (configuration not stated)	15.4	15.89
O=C(NCc1ccc2c(c1)OCO2)c1ccccc1C1CCNC1 (configuration not stated)	7.396	-7.371
CN(C)C(=O)N1CCc2c(nnn2C)C1COCC1CC1 (configuration not stated)	8.148	-12.68
c1cnn(CC2CN(c3ncnc4[nH]ccc34)CCO2)c1 (configuration not stated)	28.94	-9.856
Cc1ccsc1C(=O)NCc1cccnc1N(C)CCc1ccccn1	15.04	-44.12
CNC(=O)[C@@H]1CN(Cc2ccccc2)C[C@H]1C(=O)c1ccc(F)cc1	11.63	-7.927
Cc1nonc1CNC(=O)C(C)Oc1ccccc1F (configuration not stated)	11.63	19.3
Cc1cc(CN(C)C(=O)c2ccc(N(C)C)nc2)no1	22.83	-13.2
COCC(O)CN(C)C(=O)NCc1ccc(-c2ccn[nH]2)cc1 (configuration not stated)	11.38	2.292
CCc1nc(C2CCCN2CC(=O)NCCOc2ccccc2)no1 (configuration not stated)	8.421	-30.82
CC(NC(=O)NCCS(C)(=O)=O)c1ccc2c(c1)CCC(=O)N2 (configuration not stated)	7.955	-2.978
CCOc1nnc(CN2CCC(c3nc4ccccc4[nH]3)CC2)s1	10.31	-10.77
Cc1cccc(CN2CCCCC23CCNC3)n1.O=C(O)C(F)(F)F.O=C(O)C(F)(F)F (configuration not stated)	-	-16.89
CN1CCC(NCC(O)c2cccc(OCc3ccccc3)c2)CC1 (configuration not stated)	12.37	-3.908
O=C(Nc1ccc(-n2cncn2)nc1)N(CC1CCOC1)C1CC1 (configuration not stated)	10.42	21.99
CC(C)(O)CCc1cccc(C(=O)NCCC2=CSC3=NCCCN23)c1	11.23	-4.241
Cc1ccc(=O)n(CC2(O)CCN(Cc3cnc(C)nc3)CC2)n1	7.877	-8.145
CCN(CC1CN(Cc2cccnc2)CCO1)c1cccnn1 (configuration not stated)	5.305	-19.24
CCC(CO)N(Cc1ccncc1)Cc1c[nH]nc1-c1ccc(F)cc1 (configuration not stated)	8.108	12.05
CN1CCC(O)(CNCc2ccc(F)c(C(F)(F)F)c2)CC1	10.87	-17.12

For reference, 6 entries once more:

SMILES	LdMetRS	Mtb heat-shock
O=C(O)C(F)(F)F.O=C1COC2(CCN(c3ncccn3)CC2)CN1Cc1ccccn1	-	-34.06
Cc1nc(C)n(CC2CN(Cc3cscn3)CCO2)n1 (configuration not stated)	16.32	14.31
CN(C)c1cc(C2CCCN2C(=O)c2noc3c2CCCC3)ccn1 (configuration not stated)	13.65	8.197
O=C(c1cn(-c2ccccc2)nn1)N1CCCC(n2cccn2)C1 (configuration not stated)	19.67	0.1865
CCc1nc(C2CCCN2CC(=O)NCCOc2ccccc2)no1 (configuration not stated)	8.421	-30.82
O=C(O)C(F)(F)F.O=C(O)C(F)(F)F.[H][C@@]12CCN(c3nncs3)C[C@@]1([H])O[C@@H](C(=O)Nc1cccnc1)C2	-	8.446

Measurements from “University of Dundee, Small-Polar-MMV Screening Library” (2021), ChEMBL document CHEMBL3988442.